Drawing on publication doi:10.1101/2022.01.12.476066, this text covers binding for two substances.

By UniProt entry, the sequences of proteins in these tests, tags left out. Where a name states a change or a piece, a line headed by the entry shows the natural chain unless it says otherwise. Residues count along the entry.
GST-Epac1 (recombinant full-length human Epac1 as a Glutathione S-transferase fusion) (O95398, residues 43-923): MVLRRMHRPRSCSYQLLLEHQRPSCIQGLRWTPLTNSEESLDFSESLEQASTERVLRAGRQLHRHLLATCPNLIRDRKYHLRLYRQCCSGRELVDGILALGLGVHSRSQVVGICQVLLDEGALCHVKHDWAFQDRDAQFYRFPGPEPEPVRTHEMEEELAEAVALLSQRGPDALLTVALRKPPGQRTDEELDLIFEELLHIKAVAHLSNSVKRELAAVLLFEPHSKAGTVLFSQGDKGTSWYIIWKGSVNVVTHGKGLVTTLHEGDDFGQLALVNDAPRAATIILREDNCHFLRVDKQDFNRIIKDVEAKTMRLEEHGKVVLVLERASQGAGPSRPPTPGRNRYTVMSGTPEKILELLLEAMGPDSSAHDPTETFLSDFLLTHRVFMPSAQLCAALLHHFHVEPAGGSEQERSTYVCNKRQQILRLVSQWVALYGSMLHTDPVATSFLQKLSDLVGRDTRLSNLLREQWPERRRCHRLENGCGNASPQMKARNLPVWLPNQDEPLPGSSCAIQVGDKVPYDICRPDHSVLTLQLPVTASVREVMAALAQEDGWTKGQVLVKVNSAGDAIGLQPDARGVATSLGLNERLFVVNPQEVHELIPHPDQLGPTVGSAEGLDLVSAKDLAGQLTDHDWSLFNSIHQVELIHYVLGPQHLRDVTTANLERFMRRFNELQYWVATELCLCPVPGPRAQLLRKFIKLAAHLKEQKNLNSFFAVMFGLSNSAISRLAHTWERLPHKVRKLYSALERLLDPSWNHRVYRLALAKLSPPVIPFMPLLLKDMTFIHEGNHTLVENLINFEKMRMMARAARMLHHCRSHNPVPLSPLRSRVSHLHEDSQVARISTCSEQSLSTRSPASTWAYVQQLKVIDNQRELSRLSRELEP
GST-Δ(1-148)Epac1 (O95398, residues 191-923): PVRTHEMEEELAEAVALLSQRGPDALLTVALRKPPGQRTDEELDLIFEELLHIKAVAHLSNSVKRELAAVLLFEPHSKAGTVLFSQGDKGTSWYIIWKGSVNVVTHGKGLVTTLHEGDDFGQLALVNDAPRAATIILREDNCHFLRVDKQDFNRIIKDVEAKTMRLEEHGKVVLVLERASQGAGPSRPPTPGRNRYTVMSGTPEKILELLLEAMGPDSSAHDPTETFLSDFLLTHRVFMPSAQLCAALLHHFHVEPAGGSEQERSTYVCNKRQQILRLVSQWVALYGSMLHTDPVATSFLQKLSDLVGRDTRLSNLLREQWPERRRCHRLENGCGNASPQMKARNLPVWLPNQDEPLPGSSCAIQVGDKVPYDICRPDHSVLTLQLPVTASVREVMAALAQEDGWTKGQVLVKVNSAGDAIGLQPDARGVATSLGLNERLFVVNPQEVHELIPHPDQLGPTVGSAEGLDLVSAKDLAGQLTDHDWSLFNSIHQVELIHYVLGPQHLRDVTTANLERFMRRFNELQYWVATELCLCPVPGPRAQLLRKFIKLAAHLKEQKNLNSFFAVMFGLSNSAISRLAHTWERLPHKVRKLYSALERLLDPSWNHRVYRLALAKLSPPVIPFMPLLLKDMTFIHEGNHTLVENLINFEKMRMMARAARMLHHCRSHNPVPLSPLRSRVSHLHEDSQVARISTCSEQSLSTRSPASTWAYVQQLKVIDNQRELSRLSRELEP

The assay addresses T1, His6-AOS1/UBA2 (recombinant SUMO-activating enzyme E1) (UniProt Q9UBE0).
T1 sequence 1: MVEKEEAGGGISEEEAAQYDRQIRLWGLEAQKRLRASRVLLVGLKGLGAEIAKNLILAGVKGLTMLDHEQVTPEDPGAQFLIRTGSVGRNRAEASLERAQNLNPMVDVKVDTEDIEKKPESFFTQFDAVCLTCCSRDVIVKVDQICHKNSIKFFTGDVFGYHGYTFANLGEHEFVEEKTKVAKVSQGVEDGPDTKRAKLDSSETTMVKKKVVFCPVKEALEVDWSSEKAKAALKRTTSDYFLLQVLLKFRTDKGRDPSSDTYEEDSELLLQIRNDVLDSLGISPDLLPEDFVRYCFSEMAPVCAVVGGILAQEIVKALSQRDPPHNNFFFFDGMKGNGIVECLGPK
T1 sequence 2: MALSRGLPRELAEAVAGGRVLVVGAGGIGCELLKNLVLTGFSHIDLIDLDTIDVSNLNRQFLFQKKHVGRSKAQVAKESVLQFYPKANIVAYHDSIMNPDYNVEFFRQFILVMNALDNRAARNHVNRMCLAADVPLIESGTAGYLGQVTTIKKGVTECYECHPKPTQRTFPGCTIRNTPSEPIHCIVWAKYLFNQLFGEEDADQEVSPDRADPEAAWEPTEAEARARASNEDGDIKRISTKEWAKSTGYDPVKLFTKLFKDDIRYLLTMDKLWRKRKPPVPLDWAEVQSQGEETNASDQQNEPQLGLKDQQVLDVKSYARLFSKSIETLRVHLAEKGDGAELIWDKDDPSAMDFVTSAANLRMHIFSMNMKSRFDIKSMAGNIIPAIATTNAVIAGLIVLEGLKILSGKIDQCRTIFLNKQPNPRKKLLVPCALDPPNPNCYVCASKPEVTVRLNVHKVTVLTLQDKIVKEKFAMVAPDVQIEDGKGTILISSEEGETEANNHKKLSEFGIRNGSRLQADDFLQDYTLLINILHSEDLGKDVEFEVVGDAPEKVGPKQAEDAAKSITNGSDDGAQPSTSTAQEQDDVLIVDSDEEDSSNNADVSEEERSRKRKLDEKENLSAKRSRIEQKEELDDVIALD
The assay can be described thus: pull-down.

No constants are given. Whether binding was seen depends on the method and setting. Some results given as binding are weak or reduced against the parent protein; the word gives no strength. Tags and fused reporters may be left off the sequences shown.

Take “GST-Epac1 (recombinant full-length human Epac1 as a Glutathione S-transferase fusion) (from UniProt O95398-3 1-881)”: the binding entry is on record as “binds”.
For the substance “GST-Δ(1-148)Epac1 (from UniProt O95398-3 149-881) (domain or fragment)”, the binding entry was “binds”.
